Assay results from publication PMC12638379, “An innovative approach to development of new pyrazolylquinolin-2-one hybrids as dual EGFR and BRAF^V600E inhibitors” (Molecular Diversity, 2025).
Where two headings read alike, the source gives them in different places.

System: leukemia (MOLT-4) cell line
Assay: MTT antiproliferative assay, MOLT-4
Assay type: cell-based, human
Procedure: […]. […] See Appendix B.
After 24 h of culture incubation and supernatants discarded.

In the case of `CN[C@@H]1C[C@H]2O[C@@](C)([C@@H]1OC)n1c3ccccc3c3c4c(c5c6ccccc6n2c5c31)C(=O)NC4` [Staurosporine, reference compound], the IC50 (Homo sapiens, MOLT-4, read-out: Antiproliferative activity IC50 ± SEM, MOLT-4, MTT) is reported as 4.94 ± 0.19 µM and the IC50 (read-out: Antiproliferative activity IC50 ± SEM, MOLT-4, MTT) is reported as 5.86 ± 0.23 µM.
